Among the data in ChEMBL document CHEMBL1150308, “Cytotoxic constituents from Brazilian red propolis and their structure-activity relationship” (Bioorg Med Chem, 2008) are IC50 values, retold here.

Type in all cases: functional, cell-based
Experiment [1] can be described thus: Cytotoxicity against mouse colon 26-L5 cells after 72 hrs by MTT assay. On the technique in general: Formazan colour is commonly taken as a measure of viable cells.
Another experiment deals with HT-1080. Description: Cytotoxicity against human HT1080 cells after 72 hrs by MTT assay. Conditions: HT-1080, 72 h.
In a further experiment the test system is A549. Kind of experiment: Cytotoxicity against human A549 cells after 72 hrs by MTT assay. Conditions: A549, 72 h.
For a further experiment, the system named is HeLa. Description: Cytotoxicity against human HeLa cells after 72 hrs by MTT assay.
Experiment [2] can be described thus: Cytotoxicity against mouse LLC cells after 72 hrs by MTT assay. The settings on record: Lewis lung carcinoma.
The nature of experiment [3]: Cytotoxicity against mouse B16-BL6 cells after 72 hrs by MTT assay. The settings on record: B16-BL6, 72 h.

The term IC50 denotes the concentration at which inhibition is half-maximal. The low end stands for inhibition by little substance, the high end for a need for much substance. On to `O=C1C[C@@H](c2ccccc2)Oc2cc(O)ccc21`, for which the IC50 in experiment [1] was 51.9 µM; with HT-1080, above 100 µM; in the experiment with A549 it was above 100 µM; in the experiment on HeLa, above 100 µM; in experiment [2], above 100 µM; in experiment [3] it was 99.9 µM.
